Reference: PubChem BioAssay AID652272 (Drosophila RNAi Screening Center, 2013)
The deposit covers about 21,000 reagents; shown is a random part of those that have a named target and a result. Of all reagents, 503 (2.4%) got an active call. 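Raw plate light values, not normalised; calls rest on replicate z-scores that were not deposited; hits include reporter decreases as well as increases.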 Unmarked entries are inactive. A plus sign joins genes that one reagent is predicted to hit. No sequences are given here. Not stated in the record: the amount of reagent, the time to read-out.

- Purpose: 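Finding fly genes that regulate Hedgehog signal transduction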 (primary screen)
- Cells: Drosophila clone 8 (Cl8) cells
- Knock-down reagent: long dsRNA against Drosophila genes
- Read-out: 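Firefly light from a Hedgehog-responsive ptc promoter reporter and Renilla reference light, both read on a plate reader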
- Scale: firefly Hh reporter signal: higher = more ptc reporter light; Renilla reference signal: higher = more Renilla control light
- Hit rule: 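Called a hit if the two-replicate mean z-score lies below -2 or above +3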
- Calls: active = hit: reporter lowered or raised; inactive = not a hit

Ing3 [DRSC20002] → firefly Hh reporter signal, replicate 1: 1.17e5; firefly Hh reporter signal, replicate 2: 4.59e5; firefly Hh reporter signal, replicate 3: 64481; Renilla reference signal, replicate 1: 3283; Renilla reference signal, replicate 2: 29034
Iris [DRSC00663] → firefly Hh reporter signal, replicate 1: 1.12e5; firefly Hh reporter signal, replicate 2: 51877; Renilla reference signal, replicate 1: 4312; Renilla reference signal, replicate 2: 2423
tobi [DRSC14435] → firefly Hh reporter signal, replicate 1: 5.21e5; firefly Hh reporter signal, replicate 2: 76997; Renilla reference signal, replicate 1: 33536; Renilla reference signal, replicate 2: 2000
CG3513 [DRSC00608] → firefly Hh reporter signal, replicate 1: 1.46e5; firefly Hh reporter signal, replicate 2: 63762; Renilla reference signal, replicate 1: 4019; Renilla reference signal, replicate 2: 6441
ogre [DRSC18809] → firefly Hh reporter signal, replicate 1: 76288; firefly Hh reporter signal, replicate 2: 95564; Renilla reference signal, replicate 1: 1760; Renilla reference signal, replicate 2: 2240
del [DRSC03170] → firefly Hh reporter signal, replicate 1: 95741; firefly Hh reporter signal, replicate 2: 1.33e5; Renilla reference signal, replicate 1: 4457; Renilla reference signal, replicate 2: 4875
Spn [DRSC07986] → firefly Hh reporter signal, replicate 1: 86681; firefly Hh reporter signal, replicate 2: 1.51e5; Renilla reference signal, replicate 1: 2485; Renilla reference signal, replicate 2: 6024
Spn [DRSC08490] → firefly Hh reporter signal, replicate 1: 88525; firefly Hh reporter signal, replicate 2: 70059; Renilla reference signal, replicate 1: 4986; Renilla reference signal, replicate 2: 3146
Spn [DRSC08491] → firefly Hh reporter signal, replicate 1: 61540; firefly Hh reporter signal, replicate 2: 32049; Renilla reference signal, replicate 1: 1952; Renilla reference signal, replicate 2: 2982
CG9444 [DRSC16493] → firefly Hh reporter signal, replicate 1: 74336; firefly Hh reporter signal, replicate 2: 1.05e5; Renilla reference signal, replicate 1: 1852; Renilla reference signal, replicate 2: 2869
Nep7 [DRSC15830] → firefly Hh reporter signal, replicate 1: 86986; firefly Hh reporter signal, replicate 2: 1.35e5; Renilla reference signal, replicate 1: 3011; Renilla reference signal, replicate 2: 3607
CG10147 [DRSC09706] → firefly Hh reporter signal, replicate 1: 51458; firefly Hh reporter signal, replicate 2: 64730; Renilla reference signal, replicate 1: 5528; Renilla reference signal, replicate 2: 4416
Cyp6d5 [DRSC16634] → firefly Hh reporter signal, replicate 1: 1.09e5; firefly Hh reporter signal, replicate 2: 71771; Renilla reference signal, replicate 1: 3891; Renilla reference signal, replicate 2: 2617
Trpml + CG42638 [DRSC11032] → firefly Hh reporter signal, replicate 1: 75548; firefly Hh reporter signal, replicate 2: 69013; Renilla reference signal, replicate 1: 3127; Renilla reference signal, replicate 2: 3078

Ordered by “firefly Hh reporter signal, replicate 1” (highest first): 2 of the entries above.
Spn [DRSC08490] → firefly Hh reporter signal, replicate 1: 88525; firefly Hh reporter signal, replicate 2: 70059; Renilla reference signal, replicate 1: 4986; Renilla reference signal, replicate 2: 3146
Spn [DRSC08491] → firefly Hh reporter signal, replicate 1: 61540; firefly Hh reporter signal, replicate 2: 32049; Renilla reference signal, replicate 1: 1952; Renilla reference signal, replicate 2: 2982
